Data published in paper doi:10.1101/2024.09.26.24313895.
No constants are given. Whether binding was seen depends on the method and setting. In cells and extracts the contact can be indirect. These calls come from enrichment with a bait or labelling near it, and not all partners need be listed.

Amino acid sequences for entries named in this document (tags omitted).
UniProt Q5JSZ5: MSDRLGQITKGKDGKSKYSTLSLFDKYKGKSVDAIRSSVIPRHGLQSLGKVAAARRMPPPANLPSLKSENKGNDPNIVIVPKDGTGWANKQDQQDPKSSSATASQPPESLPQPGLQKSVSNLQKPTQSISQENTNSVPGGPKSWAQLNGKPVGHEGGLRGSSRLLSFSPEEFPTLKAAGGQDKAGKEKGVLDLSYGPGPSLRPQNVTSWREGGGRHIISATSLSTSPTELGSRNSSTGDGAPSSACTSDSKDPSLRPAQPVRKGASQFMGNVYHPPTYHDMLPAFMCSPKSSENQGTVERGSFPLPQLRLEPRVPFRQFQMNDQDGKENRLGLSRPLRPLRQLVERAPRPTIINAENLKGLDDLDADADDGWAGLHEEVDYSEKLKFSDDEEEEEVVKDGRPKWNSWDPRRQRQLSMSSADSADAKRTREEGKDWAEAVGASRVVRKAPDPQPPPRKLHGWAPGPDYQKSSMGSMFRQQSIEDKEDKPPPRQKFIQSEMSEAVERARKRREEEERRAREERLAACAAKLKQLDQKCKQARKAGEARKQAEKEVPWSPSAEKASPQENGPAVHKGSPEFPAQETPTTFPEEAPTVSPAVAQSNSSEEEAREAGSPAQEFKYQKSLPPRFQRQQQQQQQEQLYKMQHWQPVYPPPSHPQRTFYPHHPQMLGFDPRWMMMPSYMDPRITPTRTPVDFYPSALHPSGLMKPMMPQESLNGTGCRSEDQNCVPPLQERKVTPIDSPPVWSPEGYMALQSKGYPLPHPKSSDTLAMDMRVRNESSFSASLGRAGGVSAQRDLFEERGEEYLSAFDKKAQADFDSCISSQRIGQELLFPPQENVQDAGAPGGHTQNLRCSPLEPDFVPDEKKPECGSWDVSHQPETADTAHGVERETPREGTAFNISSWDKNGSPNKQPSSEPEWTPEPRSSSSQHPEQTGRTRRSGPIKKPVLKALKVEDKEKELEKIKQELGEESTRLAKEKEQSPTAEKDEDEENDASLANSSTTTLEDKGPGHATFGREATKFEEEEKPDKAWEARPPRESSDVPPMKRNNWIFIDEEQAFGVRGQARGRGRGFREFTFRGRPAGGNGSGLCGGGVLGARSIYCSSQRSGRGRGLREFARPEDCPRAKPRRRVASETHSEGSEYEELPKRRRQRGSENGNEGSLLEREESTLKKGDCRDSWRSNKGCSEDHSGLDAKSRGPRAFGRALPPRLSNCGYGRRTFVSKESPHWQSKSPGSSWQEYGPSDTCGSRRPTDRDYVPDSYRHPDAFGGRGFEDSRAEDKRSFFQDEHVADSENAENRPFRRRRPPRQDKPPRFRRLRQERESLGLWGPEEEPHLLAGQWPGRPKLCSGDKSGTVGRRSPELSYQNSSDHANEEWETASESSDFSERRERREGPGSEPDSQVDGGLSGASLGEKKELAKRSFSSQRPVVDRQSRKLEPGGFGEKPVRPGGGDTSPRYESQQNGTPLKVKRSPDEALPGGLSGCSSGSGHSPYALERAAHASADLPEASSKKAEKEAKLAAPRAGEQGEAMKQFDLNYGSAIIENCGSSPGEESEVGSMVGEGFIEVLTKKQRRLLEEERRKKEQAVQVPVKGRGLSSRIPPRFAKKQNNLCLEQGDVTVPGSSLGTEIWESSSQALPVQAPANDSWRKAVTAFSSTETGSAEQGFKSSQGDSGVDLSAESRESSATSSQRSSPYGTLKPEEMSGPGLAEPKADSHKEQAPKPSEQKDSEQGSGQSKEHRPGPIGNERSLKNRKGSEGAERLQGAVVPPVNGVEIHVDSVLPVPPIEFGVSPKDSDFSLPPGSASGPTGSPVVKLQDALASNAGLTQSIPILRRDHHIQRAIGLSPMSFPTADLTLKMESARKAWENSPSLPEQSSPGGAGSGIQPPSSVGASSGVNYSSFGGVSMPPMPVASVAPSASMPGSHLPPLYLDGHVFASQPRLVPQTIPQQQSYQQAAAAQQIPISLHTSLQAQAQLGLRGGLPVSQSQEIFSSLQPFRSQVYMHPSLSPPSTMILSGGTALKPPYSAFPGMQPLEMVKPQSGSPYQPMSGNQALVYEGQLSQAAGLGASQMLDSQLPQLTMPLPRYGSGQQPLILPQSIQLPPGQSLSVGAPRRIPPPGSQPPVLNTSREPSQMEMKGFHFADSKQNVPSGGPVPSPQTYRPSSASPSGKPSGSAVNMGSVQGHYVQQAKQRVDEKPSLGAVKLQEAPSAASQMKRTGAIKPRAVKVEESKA
UniProt P51114: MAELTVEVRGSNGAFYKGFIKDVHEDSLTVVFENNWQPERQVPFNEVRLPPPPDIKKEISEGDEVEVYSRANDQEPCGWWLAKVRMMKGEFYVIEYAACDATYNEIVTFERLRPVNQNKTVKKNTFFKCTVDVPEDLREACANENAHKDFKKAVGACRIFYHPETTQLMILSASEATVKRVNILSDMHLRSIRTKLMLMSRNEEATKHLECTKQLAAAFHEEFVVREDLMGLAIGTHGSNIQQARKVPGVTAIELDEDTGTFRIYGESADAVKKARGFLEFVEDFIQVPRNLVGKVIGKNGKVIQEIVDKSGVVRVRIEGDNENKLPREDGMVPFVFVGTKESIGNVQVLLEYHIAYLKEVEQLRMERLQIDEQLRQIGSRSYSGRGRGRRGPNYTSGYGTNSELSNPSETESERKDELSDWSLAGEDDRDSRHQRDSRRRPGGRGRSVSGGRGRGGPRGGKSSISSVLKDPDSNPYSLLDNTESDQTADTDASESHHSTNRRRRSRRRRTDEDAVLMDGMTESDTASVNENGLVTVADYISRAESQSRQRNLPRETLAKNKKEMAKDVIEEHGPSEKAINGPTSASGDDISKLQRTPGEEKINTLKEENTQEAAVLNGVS
UniProt P78344: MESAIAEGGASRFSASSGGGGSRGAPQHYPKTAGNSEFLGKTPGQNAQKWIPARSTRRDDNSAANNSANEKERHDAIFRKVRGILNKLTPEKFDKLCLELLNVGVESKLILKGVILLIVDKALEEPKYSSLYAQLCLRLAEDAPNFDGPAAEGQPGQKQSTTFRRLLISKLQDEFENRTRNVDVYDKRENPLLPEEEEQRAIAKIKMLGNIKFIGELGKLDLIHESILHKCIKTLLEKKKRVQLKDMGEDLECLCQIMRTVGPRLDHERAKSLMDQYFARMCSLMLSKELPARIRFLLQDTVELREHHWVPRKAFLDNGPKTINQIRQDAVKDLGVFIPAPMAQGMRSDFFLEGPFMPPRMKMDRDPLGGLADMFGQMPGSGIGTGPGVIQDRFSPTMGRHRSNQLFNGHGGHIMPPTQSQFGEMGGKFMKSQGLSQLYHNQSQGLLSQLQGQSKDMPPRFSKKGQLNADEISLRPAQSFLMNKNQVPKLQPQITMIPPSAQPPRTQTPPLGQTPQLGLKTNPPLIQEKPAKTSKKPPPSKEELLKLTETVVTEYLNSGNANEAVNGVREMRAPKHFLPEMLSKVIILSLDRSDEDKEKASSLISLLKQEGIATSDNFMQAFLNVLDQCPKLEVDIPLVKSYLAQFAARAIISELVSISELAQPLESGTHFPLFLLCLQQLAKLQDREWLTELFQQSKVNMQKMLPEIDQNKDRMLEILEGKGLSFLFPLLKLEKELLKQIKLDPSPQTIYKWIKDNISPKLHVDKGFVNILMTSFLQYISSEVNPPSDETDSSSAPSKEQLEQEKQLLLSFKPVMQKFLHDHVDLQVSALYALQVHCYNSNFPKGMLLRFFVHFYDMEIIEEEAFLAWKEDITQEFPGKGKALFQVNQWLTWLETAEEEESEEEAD

Target: FLAG-tagged full-length PRRC2B (Pro-rich Coiled-coil Containing Protein 2B) (human) (UniProt Q5JSZ5)
Experiment: affinity purification with mass spectrometry

| Substance | binding |
| --- | --- |
| FXR1 (from UniProt P51114 1-621) | binds |
| eIF4G2 (noncanonical translational initiation factor) (from UniProt P78344 1-907) | binds |
